Consider one molecule from patent US20260029420A1, “ANTI-CB2 ANTIBODIES AND THEIR USE IN A FLOW CYTOMETRY ASSAY TO MEASURE CELL SURFACE CB2 EXPRESSION” (Hoffmann-La Roche Inc., priority 2022, published 2026).

By UniProt entry, the sequences of proteins in these tests, tags left out.
UniProt G7NVV5: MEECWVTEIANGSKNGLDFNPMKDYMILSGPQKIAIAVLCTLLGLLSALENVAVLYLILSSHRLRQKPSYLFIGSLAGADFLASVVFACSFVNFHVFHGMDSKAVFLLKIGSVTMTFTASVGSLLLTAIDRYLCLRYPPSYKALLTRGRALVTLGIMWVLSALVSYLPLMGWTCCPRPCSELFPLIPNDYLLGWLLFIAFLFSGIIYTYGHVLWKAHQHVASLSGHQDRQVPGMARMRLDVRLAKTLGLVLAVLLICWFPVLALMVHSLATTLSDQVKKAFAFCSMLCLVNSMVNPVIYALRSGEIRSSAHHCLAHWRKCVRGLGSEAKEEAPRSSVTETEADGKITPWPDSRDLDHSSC

The target in the assay is cynomolgus CB2 (cynomolgus monkey) (UniProt G7NVV5). Nature of the assay: flow cytometry on B-cells in cynomolgus whole blood. A general note: Flow cytometry measures light scatter and fluorescence of single cells or particles in a stream.

Results are given in words; binding and its absence hold for the method and conditions named. Some results given as binding are weak or reduced against the parent protein; the word gives no strength.

B1: Anti-CB2 clone 1/622 (antibody, IgG3, V domains shown)
VH: EVQLQQSGPELVKPGASVKISCKTSGYTFTEYTMHWVRQSHGKSLEWIGGIDRYNGDTYYNQKFKDKATLTVDRSSSTAYMELRSLTSEDSAVYFCARNGAMDYWGQGISVTVSS
VL: DVVMTQTPLSLPVSLGDQASISCRSSQSLVHSNGNTYLHWFLQKPGQSPKLLIYKVSIRFSGVPDRFSGSGSGTDFTLKISRVEAEDLGVYFCSQSTHVPPLTFGAGTKLELKR
In the case of B1, the binding result was “binds”.
